Reference: PMC6091019
These are yes or no findings as the source states them, for the method shown. Binding seen in cells or lysates may run through a third protein. Binding can be weak; no strength is given.

Protein sequences, listed by entry. Tags and fused reporters are not part of them. Lines headed by an entry give the natural chain unless they say otherwise; changes in a name come on top. Residues count along the entry.
UniProt P04937, residues 25-2477: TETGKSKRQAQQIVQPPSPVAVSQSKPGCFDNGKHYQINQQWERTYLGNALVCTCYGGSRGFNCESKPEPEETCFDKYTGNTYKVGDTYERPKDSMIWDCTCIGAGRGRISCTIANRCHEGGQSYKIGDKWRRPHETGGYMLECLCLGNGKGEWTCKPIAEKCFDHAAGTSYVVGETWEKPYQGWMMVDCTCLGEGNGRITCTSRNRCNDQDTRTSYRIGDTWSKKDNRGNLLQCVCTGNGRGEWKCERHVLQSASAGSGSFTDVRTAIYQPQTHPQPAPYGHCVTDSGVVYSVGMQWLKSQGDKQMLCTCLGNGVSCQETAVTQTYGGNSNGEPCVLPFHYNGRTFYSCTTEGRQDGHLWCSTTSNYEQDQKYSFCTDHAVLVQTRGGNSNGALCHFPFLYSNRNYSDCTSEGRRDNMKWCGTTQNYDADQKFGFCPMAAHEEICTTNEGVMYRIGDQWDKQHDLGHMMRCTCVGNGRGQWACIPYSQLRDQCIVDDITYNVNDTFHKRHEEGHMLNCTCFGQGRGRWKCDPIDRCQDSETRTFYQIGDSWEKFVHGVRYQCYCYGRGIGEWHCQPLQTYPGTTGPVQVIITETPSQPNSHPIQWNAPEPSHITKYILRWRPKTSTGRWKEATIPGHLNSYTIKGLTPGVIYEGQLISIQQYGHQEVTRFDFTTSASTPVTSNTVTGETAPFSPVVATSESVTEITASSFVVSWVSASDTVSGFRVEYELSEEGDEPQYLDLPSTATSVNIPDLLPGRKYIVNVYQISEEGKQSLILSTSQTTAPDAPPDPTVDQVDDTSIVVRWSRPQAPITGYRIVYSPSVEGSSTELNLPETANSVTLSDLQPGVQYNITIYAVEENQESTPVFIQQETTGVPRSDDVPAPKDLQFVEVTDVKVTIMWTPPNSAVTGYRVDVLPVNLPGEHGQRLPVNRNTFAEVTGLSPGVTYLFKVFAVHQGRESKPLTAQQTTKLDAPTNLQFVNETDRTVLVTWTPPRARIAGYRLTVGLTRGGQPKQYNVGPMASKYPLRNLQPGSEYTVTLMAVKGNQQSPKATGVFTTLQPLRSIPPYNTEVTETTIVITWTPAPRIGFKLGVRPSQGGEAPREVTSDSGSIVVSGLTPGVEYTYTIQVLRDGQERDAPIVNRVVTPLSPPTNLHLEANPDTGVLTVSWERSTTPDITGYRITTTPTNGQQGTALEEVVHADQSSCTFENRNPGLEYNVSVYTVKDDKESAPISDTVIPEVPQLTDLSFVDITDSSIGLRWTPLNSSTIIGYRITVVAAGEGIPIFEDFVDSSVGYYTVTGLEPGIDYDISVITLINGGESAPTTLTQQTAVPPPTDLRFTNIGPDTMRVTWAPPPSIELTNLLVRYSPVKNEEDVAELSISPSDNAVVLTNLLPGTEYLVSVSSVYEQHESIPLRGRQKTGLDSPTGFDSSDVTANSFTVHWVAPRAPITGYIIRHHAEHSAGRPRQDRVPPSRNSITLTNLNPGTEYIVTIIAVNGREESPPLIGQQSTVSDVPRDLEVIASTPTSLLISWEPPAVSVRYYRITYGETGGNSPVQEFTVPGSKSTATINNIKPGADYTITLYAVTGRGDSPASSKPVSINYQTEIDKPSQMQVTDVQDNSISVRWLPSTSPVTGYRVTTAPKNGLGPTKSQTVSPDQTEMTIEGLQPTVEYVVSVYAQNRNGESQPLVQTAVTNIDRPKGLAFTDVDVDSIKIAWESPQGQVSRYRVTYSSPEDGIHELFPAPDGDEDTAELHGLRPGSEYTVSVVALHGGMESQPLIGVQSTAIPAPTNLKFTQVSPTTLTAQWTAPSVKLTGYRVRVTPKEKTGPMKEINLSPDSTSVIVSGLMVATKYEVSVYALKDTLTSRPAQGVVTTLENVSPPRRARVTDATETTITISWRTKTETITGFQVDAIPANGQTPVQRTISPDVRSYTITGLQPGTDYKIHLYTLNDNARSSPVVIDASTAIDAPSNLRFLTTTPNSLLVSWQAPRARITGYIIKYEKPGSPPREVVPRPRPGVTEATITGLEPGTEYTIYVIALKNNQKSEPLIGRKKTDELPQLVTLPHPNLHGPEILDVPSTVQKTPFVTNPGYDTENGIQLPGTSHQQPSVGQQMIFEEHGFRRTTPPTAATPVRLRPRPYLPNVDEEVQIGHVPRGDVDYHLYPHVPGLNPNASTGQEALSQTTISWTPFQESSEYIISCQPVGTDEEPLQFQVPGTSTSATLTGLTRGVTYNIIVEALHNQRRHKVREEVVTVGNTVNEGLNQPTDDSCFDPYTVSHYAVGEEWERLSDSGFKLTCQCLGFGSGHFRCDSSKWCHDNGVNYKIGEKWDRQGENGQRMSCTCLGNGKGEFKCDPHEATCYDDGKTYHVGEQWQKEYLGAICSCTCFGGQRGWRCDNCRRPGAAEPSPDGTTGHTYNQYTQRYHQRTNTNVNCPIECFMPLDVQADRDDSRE
UniProt P08649: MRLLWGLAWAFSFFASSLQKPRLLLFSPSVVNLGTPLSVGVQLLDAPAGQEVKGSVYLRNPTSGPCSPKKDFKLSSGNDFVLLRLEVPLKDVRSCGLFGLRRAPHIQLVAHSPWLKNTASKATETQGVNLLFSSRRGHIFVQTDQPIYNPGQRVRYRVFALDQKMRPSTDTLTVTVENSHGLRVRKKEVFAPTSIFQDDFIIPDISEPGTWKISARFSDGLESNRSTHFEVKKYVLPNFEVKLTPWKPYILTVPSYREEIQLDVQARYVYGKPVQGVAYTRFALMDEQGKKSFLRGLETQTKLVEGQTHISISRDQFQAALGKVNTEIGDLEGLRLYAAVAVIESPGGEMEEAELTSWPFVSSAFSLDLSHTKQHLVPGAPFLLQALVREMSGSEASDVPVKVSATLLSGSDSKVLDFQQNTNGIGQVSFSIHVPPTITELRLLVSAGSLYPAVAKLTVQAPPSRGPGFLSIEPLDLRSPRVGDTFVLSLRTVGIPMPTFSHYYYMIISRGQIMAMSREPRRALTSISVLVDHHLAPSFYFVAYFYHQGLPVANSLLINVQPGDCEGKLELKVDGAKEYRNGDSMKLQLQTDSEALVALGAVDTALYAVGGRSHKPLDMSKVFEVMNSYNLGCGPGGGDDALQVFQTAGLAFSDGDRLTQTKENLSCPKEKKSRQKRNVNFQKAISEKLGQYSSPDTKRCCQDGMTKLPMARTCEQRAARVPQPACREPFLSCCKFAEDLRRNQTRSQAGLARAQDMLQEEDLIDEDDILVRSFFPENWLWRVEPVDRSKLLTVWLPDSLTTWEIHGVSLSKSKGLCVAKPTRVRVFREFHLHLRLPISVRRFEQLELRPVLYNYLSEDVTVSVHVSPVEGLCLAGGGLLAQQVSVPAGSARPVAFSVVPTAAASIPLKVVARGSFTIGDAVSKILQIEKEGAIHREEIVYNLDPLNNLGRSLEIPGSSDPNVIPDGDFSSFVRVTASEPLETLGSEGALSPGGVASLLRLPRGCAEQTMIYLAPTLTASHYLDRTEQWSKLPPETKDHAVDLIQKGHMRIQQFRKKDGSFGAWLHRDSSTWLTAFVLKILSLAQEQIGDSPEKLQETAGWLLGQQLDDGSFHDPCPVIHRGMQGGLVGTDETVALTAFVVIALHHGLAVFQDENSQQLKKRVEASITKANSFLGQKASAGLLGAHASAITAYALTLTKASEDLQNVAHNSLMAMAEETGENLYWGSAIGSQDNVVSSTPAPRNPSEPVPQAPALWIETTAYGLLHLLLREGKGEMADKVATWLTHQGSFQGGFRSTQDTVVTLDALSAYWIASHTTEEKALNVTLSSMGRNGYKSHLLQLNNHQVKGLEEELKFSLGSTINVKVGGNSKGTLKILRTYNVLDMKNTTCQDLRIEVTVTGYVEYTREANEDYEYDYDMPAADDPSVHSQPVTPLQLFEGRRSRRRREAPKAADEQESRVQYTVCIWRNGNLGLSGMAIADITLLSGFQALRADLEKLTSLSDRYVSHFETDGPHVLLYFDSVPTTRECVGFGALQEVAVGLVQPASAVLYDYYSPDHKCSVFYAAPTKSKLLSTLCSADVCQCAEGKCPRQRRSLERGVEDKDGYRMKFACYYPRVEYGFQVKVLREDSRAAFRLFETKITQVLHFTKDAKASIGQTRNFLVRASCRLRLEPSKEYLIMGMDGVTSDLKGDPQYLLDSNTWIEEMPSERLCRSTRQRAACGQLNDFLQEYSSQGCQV

Biological target: deoxycholate (DOC)-insoluble fibronectin aggregates from primary rat astrocytes (rat (endogenous in primary astrocytes)) (UniProt P04937)
Experiment: co-sedimentation; DOC-insoluble fibronectin aggregates from deposits of activated rat astrocytes; SDS-PAGE under reducing conditions, in-gel trypsin digestion, LC-MS (LTQ Orbitrap XL), PEAKS; only proteins known or predicted to be secreted were kept

binding: binds
Substance: Complement C4B (from UniProt P08649)
